{
  "source": "the supplement of paper PMC8728848",
  "binders": {"B1": {"name": "DC-Sign-R (Homo sapiens), Q9H2X3 (protein)", "chain": "MSDSKEPRVQQLGLLEEDPTTSGIRLFPRDFQFQQIHGHKSSTGCLGHGALVLQLLSFMLLAGVLVAILVQVSKVPSSLSQEQSEQDAIYQNLTQLKAAVGELSEKSKLQEIYQELTQLKAAVGELPEKSKLQEIYQELTRLKAAVGELPEKSKLQEIYQELTRLKAAVGELPEKSKLQEIYQELTRLKAAVGELPEKSKLQEIYQELTELKAAVGELPEKSKLQEIYQELTQLKAAVGELPDQSKQQQIYQELTDLKTAFERLCRHCPKDWTFFQGNCYFMSNSQRNWHDSVTACQEVRAQLVVIKTAEEQNFLQLQTSRSNRFSWMGLSDLNQEGTWQWVDGSPLSPSFQRYWNSGEPNNSGNEDCAEFSGSGWNDNRCDVDNYWICKKPAACFRDE"}},
  "assay_in_all_cases": "glycan array binding signal (z-score within array); higher = stronger binding",
  "details_in_all_cases": "glycan notation: IUPAC condensed, linker removed",
  "key": {"[1]": {"target": "GlcNAc(b1-3)Gal(b1-4)GlcNAc(b1-3)Gal(b1-4)GlcNAc(b1-3)Gal(b1-4)GlcNAc(b1-2)Man(a1-3)[GlcNAc(b1-3)Gal(b1-4)GlcNAc(b1-3)Gal(b1-4)GlcNAc(b1-3)Gal(b1-4)GlcNAc(b1-2)Man(a1-6)]Man(b1-4)GlcNAc(b1-4)[Fuc(a1-6)]GlcNAc", "in_short": "(§1)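 The binding signal is a Z-score computed within each array. Data were drawn from 3228 arrays in the Consortium for Functional Glycomics database, restricted to those with a known protein sequence. Scores were averaged over arrays of the same protein sequence at different concentrations or buffers, and over linkers, and negative values can be taken as non-binding.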"}, "[2]": {"target": "GlcNAc(b1-3)Gal(b1-4)GlcNAc(b1-3)Gal(b1-4)GlcNAc(b1-3)Gal(b1-4)GlcNAc(b1-2)[GlcNAc(b1-3)Gal(b1-4)GlcNAc(b1-3)Gal(b1-4)GlcNAc(b1-3)Gal(b1-4)GlcNAc(b1-6)]Man(a1-6)[GlcNAc(b1-3)Gal(b1-4)GlcNAc(b1-3)Gal(b1-4)GlcNAc(b1-3)Gal(b1-4)GlcNAc(b1-2)Man(a1-3)]Man(b1-4)GlcNAc(b1-4)[Fuc(a1-6)]GlcNAc", "in_short": "as §1"}, "[3]": {"target": "GlcNAc(b1-3)Gal(b1-4)GlcNAc(b1-3)Gal(b1-4)GlcNAc(b1-3)Gal(b1-4)GlcNAc(b1-3)Gal(b1-4)GlcNAc(b1-2)Man(a1-3)[GlcNAc(b1-3)Gal(b1-4)GlcNAc(b1-3)Gal(b1-4)GlcNAc(b1-3)Gal(b1-4)GlcNAc(b1-3)Gal(b1-4)GlcNAc(b1-2)Man(a1-6)]Man(b1-4)GlcNAc(b1-4)GlcNAc", "in_short": "as §1"}, "[4]": {"target": "GlcNAc(b1-3)Gal(b1-4)GlcNAc(b1-3)Gal(b1-4)GlcNAc(b1-3)Gal(b1-4)GlcNAc(b1-3)Gal(b1-4)GlcNAc(b1-2)Man(a1-3)[GlcNAc(b1-3)Gal(b1-4)GlcNAc(b1-3)Gal(b1-4)GlcNAc(b1-3)Gal(b1-4)GlcNAc(b1-3)Gal(b1-4)GlcNAc(b1-2)Man(a1-6)]Man(b1-4)GlcNAc(b1-4)[Fuc(a1-6)]GlcNAc", "in_short": "as §1"}, "[5]": {"target": "GlcNAc(b1-3)Gal(b1-4)GlcNAc(b1-3)Gal(b1-4)GlcNAc(b1-3)Gal(b1-4)GlcNAc(b1-3)Gal(b1-4)GlcNAc(b1-2)[GlcNAc(b1-3)Gal(b1-4)GlcNAc(b1-3)Gal(b1-4)GlcNAc(b1-3)Gal(b1-4)GlcNAc(b1-3)Gal(b1-4)GlcNAc(b1-6)]Man(a1-6)[GlcNAc(b1-3)Gal(b1-4)GlcNAc(b1-3)Gal(b1-4)GlcNAc(b1-3)Gal(b1-4)GlcNAc(b1-3)Gal(b1-4)GlcNAc(b1-2)Man(a1-3)]Man(b1-4)GlcNAc(b1-4)[Fuc(a1-6)]GlcNAc", "in_short": "as §1"}, "[6]": {"target": "GlcNAc(b1-3)Gal(b1-4)GlcNAc(b1-3)Gal(b1-4)GlcNAc(b1-3)GalNAc", "in_short": "as §1"}, "[7]": {"target": "GlcNAc(b1-3)Gal(b1-4)GlcNAc(b1-3)GalNAc", "in_short": "as §1"}, "[8]": {"target": "GlcNAc(b1-3)Gal(b1-4)GlcNAc(b1-3)[GlcNAc(b1-3)Gal(b1-4)GlcNAc(b1-3)]GalNAc", "in_short": "as §1"}, "[9]": {"target": "GlcNAc(b1-3)Gal(b1-4)GlcNAc(b1-6)[Gal(b1-3)]GalNAc", "in_short": "as §1"}, "[10]": {"target": "GlcNAc(b1-3)Gal(b1-4)GlcNAc(b1-6)[GlcNAc(b1-3)Gal(b1-3)]GalNAc", "in_short": "as §1"}, "[11]": {"target": "GlcNAc(b1-3)Gal(b1-4)GlcNAc(b1-6)[GlcNAc(b1-3)]Gal(b1-4)GlcNAc", "in_short": "as §1"}, "GlcNAc(b1-3)GalNAc": {"target": "GlcNAc(b1-3)GalNAc", "in_short": "as §1"}, "GlcNAc(b1-3)Man": {"target": "GlcNAc(b1-3)Man", "in_short": "as §1"}, "[12]": {"target": "GlcNAc(b1-3)[GlcNAc(b1-4)][GlcNAc(b1-6)]GlcNAc", "in_short": "as §1"}, "[13]": {"target": "GlcNAc(b1-3)[GlcNAc(b1-6)]Gal(b1-4)GlcNAc", "in_short": "as §1"}, "[14]": {"target": "GlcNAc(b1-3)[GlcNAc(b1-6)]GalNAc", "in_short": "as §1"}, "[15]": {"target": "GlcNAc(b1-4)Gal(b1-4)GlcNAc", "in_short": "as §1"}, "GlcNAc(b1-4)GlcNAc": {"target": "GlcNAc(b1-4)GlcNAc", "in_short": "as §1"}, "[16]": {"target": "GlcNAc(b1-4)GlcNAc(b1-4)GlcNAc", "in_short": "as §1"}},
  "note": "The list shows a part of the results.",
  "data": [
    {"binder": "B1", "values": [
      {"measurement": "glycan array binding signal (z-score)", "setting": "[1]", "result": -0.393},
      {"measurement": "glycan array binding signal (z-score)", "setting": "[2]", "result": -0.532},
      {"measurement": "glycan array binding signal (z-score)", "setting": "[3]", "result": -0.559},
      {"measurement": "glycan array binding signal (z-score)", "setting": "[4]", "result": -0.657},
      {"measurement": "glycan array binding signal (z-score)", "setting": "[5]", "result": -0.686},
      {"measurement": "glycan array binding signal (z-score)", "setting": "[6]", "result": -0.424},
      {"measurement": "glycan array binding signal (z-score)", "setting": "[7]", "result": 0.93},
      {"measurement": "glycan array binding signal (z-score)", "setting": "[8]", "result": 0.24},
      {"measurement": "glycan array binding signal (z-score)", "setting": "[9]", "result": 1.82},
      {"measurement": "glycan array binding signal (z-score)", "setting": "[10]", "result": 1.74},
      {"measurement": "glycan array binding signal (z-score)", "setting": "[11]", "result": 0.145},
      {"measurement": "glycan array binding signal (z-score)", "setting": "GlcNAc(b1-3)GalNAc", "result": -0.469},
      {"measurement": "glycan array binding signal (z-score)", "setting": "GlcNAc(b1-3)Man", "result": -0.846},
      {"measurement": "glycan array binding signal (z-score)", "setting": "[12]", "result": 0.319},
      {"measurement": "glycan array binding signal (z-score)", "setting": "[13]", "result": -0.369},
      {"measurement": "glycan array binding signal (z-score)", "setting": "[14]", "result": 0.275},
      {"measurement": "glycan array binding signal (z-score)", "setting": "[15]", "result": 0.1},
      {"measurement": "glycan array binding signal (z-score)", "setting": "GlcNAc(b1-4)GlcNAc", "result": 0.486},
      {"measurement": "glycan array binding signal (z-score)", "setting": "[16]", "result": -0.421}
    ]}
  ]
}
